Consider 17 sequences from PMC4269173.

Construct, isoform or probe ends are uncertain for at least one entry. For some assays here: No signal at the amounts used counts as a negative. For some assays here: At least one verdict rests on a figure or table, not on a statement of the authors.

One data set concerns RIN (tomato). In words: EMSA. To be noted: 10 mM Tris-HCl pH 7.2, 50 mM KCl, 1 mM DTT, 2.5% glycerol, 0.05% NP-40, 50 ng/uL poly(dI-dC), room temperature, 20 min + 20 min; 6% native PAGE; recombinant protein; protein details: N-terminal His-tag (pET-30a); label: 3' biotin (probe). On the technique in general: A gel shift assay detects complexes by their altered migration in electrophoresis.
As to “AAAGTAAACAAAAAATAGTTACGAAG (double strand) [SlUBC32-wt]”, the binding result is on record as “binds”.
On the same count and under the same terms, for “AGACAAAACAAAAAAAAGTAATATTT (double strand) [SlUBC41-wt]” the value was “binds”.
The same measure, in the same setting: for “TATATTAACAATTAATTGTTTTTGGG (double strand) [SlUBC24-wt]” the value was “binds”.
Regarding “TATTCACTCAAAAAAATGGAGTGAAA (double strand) [SlUBC6-wt]”, the binding result is “binds”.
As to “TTGTGGAACTAAAATATGTAGATTAT (double strand) [SlUBC42-wt]”, the binding result is “binds”.
Turning to “TTTTAACTCAATAATTTGACGAAAAG (double strand) [SlUBC8-wt]”, the binding result is listed as “binds”.
On the same count and under the same terms, for “TTTTGTTACTAATTTTTGAGGGATAT (double strand) [PSMD2-wt]” the value was “binds”.

The next data set relates to RIN (tomato). Briefly: competition with a labelled probe. To be noted: 1000-fold excess unlabeled; 10 mM Tris-HCl pH 7.2, 50 mM KCl, 1 mM DTT, 2.5% glycerol, 0.05% NP-40, 50 ng/uL poly(dI-dC), room temperature, 20 min + 20 min; 6% native PAGE; recombinant protein; protein details: N-terminal His-tag (pET-30a).
In the case of “AGACAAAAAAAAAAAAATTAATATTT (double strand) [SlUBC41-mt1]”, the binding result is reported as “no binding”.
Regarding “AGACAAAACAACAAGAAGTAATATTT (double strand) [SlUBC41-mt2]”, the binding result is “no binding”.
As for “TATATTAAAAATTAATTTTTTTTGGG (double strand) [SlUBC24-mt1]”, the binding result was “no binding”.
As for “TATATTAACAACTAGTTGTTTTTGGG (double strand) [SlUBC24-mt2]”, the binding result is on record as “no binding”.
On the same count and under the same terms, next, “TATTCACTAAAAAAAATTGAGTGAAA (double strand) [SlUBC6-mt1]”: “no binding”; “TATTCACTCAACAAGATGGAGTGAAA (double strand) [SlUBC6-mt2]”: “no binding”.
Still for that read-out and setting: next, “TTGTGGAAATAAAATATTTAGATTAT (double strand) [SlUBC42-mt1]”: “no binding”; “TTGTGGAACTACAAGATGTAGATTAT (double strand) [SlUBC42-mt2]”: “no binding”.
Same read-out and setting: next, “TTTTAACTAAATAATTTTACGAAAAG (double strand) [SlUBC8-mt1]”: “no binding”; “TTTTAACTCAACAAGTTGACGAAAAG (double strand) [SlUBC8-mt2]”: “no binding”.
